Source: PMC7279049

Columns and labels:
[1] = target: EDEM1 mutant lacking the IDR (∆-EDEM1); experiment: affinity purification with mass spectrometry; HEK293T overexpressing EDEM1 or ∆-EDEM1, lysed in Triton X-100 or Digitonin buffer; immunoprecipitation with rabbit anti-EDEM1 antibodies, LC-MS/MS; spectral counts after subtraction of the empty-vector control (Figure 3A)
[2] = target: T1, ER-degradation enhancing α-mannosidase-like (EDEM1) (UniProt Q92611); experiment: as above
T1 sequence: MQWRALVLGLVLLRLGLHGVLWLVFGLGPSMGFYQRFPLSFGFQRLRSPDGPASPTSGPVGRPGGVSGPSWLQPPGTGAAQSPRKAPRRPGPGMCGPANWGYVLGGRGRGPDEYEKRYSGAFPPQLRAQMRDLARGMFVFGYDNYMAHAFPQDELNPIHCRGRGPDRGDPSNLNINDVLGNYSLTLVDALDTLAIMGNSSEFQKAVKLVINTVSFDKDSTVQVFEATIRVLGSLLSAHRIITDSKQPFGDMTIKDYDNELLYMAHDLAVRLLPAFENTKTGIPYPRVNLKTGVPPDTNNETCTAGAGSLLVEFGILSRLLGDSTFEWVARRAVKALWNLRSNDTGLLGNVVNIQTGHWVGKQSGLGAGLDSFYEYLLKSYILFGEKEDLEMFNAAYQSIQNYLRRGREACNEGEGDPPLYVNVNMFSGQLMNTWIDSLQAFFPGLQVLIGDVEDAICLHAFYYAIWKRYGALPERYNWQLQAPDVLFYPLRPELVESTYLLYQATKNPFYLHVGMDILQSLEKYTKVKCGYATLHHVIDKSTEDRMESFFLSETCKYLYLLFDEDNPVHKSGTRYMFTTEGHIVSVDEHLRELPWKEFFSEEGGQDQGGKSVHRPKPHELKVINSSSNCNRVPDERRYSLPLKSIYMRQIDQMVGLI

[3] = target: T1, ER-degradation enhancing α-mannosidase-like (EDEM1); experiment: affinity purification with mass spectrometry; HEK293T overexpressing EDEM1 or an empty vector, lysed in 1% Triton X-100 buffer; immunoprecipitation with anti-EDEM1 antibodies, SDS-PAGE, in-gel digestion, LC-MS/MS; LFQ values of three biological replicates, t-test with permutation-based FDR, hierarchical clustering of GO-selected proteins (Figure 1A,B)

Measured: binding

B1: ERdj5 (DNAJC10) (protein, UniProt Q8IXB1 33-793)
chain: DQDFYSLLGVSKTASSREIRQAFKKLALKLHPDKNPNNPNAHGDFLKINRAYEVLKDEDLRKKYDKYGEKGLEDNQGGQYESWNYYRYDFGIYDDDPEIITLERREFDAAVNSGELWFVNFYSPGCSHCHDLAPTWRDFAKEVDGLLRIGAVNCGDDRMLCRMKGVNSYPSLFIFRSGMAPVKYHGDRSKESLVSFAMQHVRSTVTELWTGNFVNSIQTAFAAGIGWLITFCSKGGDCLTSQTRLRLSGMLDGLVNVGWMDCATQDNLCKSLDITTSTTAYFPPGATLNNKEKNSILFLNSLDAKEIYLEVIHNLPDFELLSANTLEDRLAHHRWLLFFHFGKNENSNDPELKKLKTLLKNDHIQVGRFDCSSAPDICSNLYVFQPSLAVFKGQGTKEYEIHHGKKILYDILAFAKESVNSHVTTLGPQNFPANDKEPWLVDFFAPWCPPCRALLPELRRASNLLYGQLKFGTLDCTVHEGLCNMYNIQAYPTTVVFNQSNIHEYEGHHSAEQILEFIEDLMNPSVVSLTPTTFNELVTQRKHNEVWMVDFYSPWCHPCQVLMPEWKRMARTLTGLINVGSIDCQQYHSFCAQENVQRYPEIRFFPPKSNKAYHYHSYNGWNRDAYSLRIWGLGFLPQVSTDLTPQTFSEKVLQGKNHWVIDFYAPWCGPCQNFAPEFELLARMIKGKVKAGKVDCQAYAQTCQKAGIRAYPTVKFYFYERAKRNFQEEQINTRDAKAIAALISEKLETLRNQGKRNKDEL
binds: all assays above

Results are given in words; binding and its absence hold for the method and conditions named. Binding seen in cells or lysates may run through a third protein. These calls come from enrichment with a bait or labelling near it, and not all partners need be listed.
